Laboratory results published in PubChem BioAssay AID651640 (Broad Institute, 2012).
The whole screen tested about 350,000 compounds, of which about 6,000 (1.7%) were called active. The inconclusive results got no clear call from the source; some entries with a clear call stand among them for comparison. Cut-off read from the data, not from the text of the source: active = CPE inhibition above about 20% (passing the limit was not always enough); inconclusive = no clear call, values can overlap the other calls; tested in BHK-21 cells.

Assay: protection of cells from dengue 2 killing – plate reader, single concentration, primary screen (AID 651640);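 note: 0% = median of neutral control wells and 100% = median of positive control wells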
Details: DENV2-infected cells, cytopathic effect rescue, at 9.99 µM, stronger effect = higher value

| SMILES | CPE inhibition |
| --- | --- |
| C[C@@H]1CN([C@H](C)CO)C(=O)c2cccc(NC(=O)NC3CCCCC3)c2O[C@H]1CN(C)S(=O)(=O)c1cccs1 | inconclusive: 26.3% |
| O=C(C[C@H]1CC[C@H]2[C@@H](COC[C@H](O)CN2C(=O)Nc2ccccc2)O1)NC1Cc2ccccc2C1 | inactive: -5.08% |
| O=C(c1cnc(Cc2c[nH]c3ccccc23)c(I)c1)N1CCN(Cc2ccccc2)CC1 | inconclusive: 45.1% |
| COCCn1c(=S)[nH]c2sc3c(c2c1=O)CCCC3 | inconclusive: 28% |
| C[C@@H]1CN([C@@H](C)CO)C(=O)c2cc(NS(=O)(=O)c3ccc(F)cc3)ccc2O[C@@H](C)CCCCO[C@@H]1CN(C)C(=O)CCCN(C)C | active: 82.8% |
| Cc1ccc(S(=O)(=O)N[C@H]2CC[C@H](CCNS(=O)(=O)Cc3ccccc3)O[C@H]2CO)cc1 | inactive: 11% |
| O=C(N[C@H]1CC[C@H](CCNS(=O)(=O)c2ccc(Cl)cc2)O[C@H]1CO)c1cccnc1 | inactive: 0.879% |
| C[C@@H]1CN([C@H](C)CO)C(=O)Cc2cc(NC(=O)CCC(F)(F)F)ccc2O[C@@H]1CN(C)C(=O)Nc1ccccc1 | inconclusive: 79.3% |
| Cc1cccc(OCC(=O)NNC(=O)c2cc(S(=O)(=O)N(C)C)ccc2N2CCCC2)c1 | inconclusive: 24.5% |
| COc1ccc(CCN(C)Cc2c(O)ccc3cc(Br)ccc23)cc1OC | inconclusive: 21.8% |
| O=C(c1ccccc1F)N1C[C@H]2[C@@H](c3ccccc31)[C@H](CO)N2C(=O)c1ccncc1 | active: 21.9% |
| C[C@@H]1CN([C@H](C)CO)C(=O)c2cc(NC(=O)CCC(F)(F)F)ccc2O[C@@H](C)CCCCO[C@@H]1CN(C)C(=O)Cc1ccccc1 | inconclusive: 27.2% |
| CCOc1ccc(N(CC)C(=O)COc2cc(=O)n(C)c3ccccc23)cc1 | inactive: 4.1% |
| C/C(CC1CC(COCC(C)C)OC1=O)=N\NC(N)=S (centres undefined) | active: 90.8% |
| CC(=O)n1cc(CO)c2ccccc21 | active: 35.5% |
| C[C@@H]1CN([C@@H](C)CO)C(=O)c2cc(NS(=O)(=O)c3cn(C)cn3)ccc2O[C@@H](C)CCCCO[C@H]1CN(C)C(=O)CCC(F)(F)F | inactive: 6.8% |
| CN1c2ccc(-c3cccc(F)c3)cc2[C@H]2[C@H](CCN2C(=O)CC2CC2)[C@@H]1CO | inconclusive: 33.3% |
| Cc1ccc(S(=O)(=O)N(C)C[C@@H]2Oc3ccc(NC(=O)Nc4ccc5c(c4)OCO5)cc3C(=O)N([C@@H](C)CO)C[C@@H]2C)cc1 | inconclusive: 24.2% |
| COc1ccc(C(O)c2nc(-c3cccc(C(C)C)c3)cs2)cc1 (centres undefined) | inconclusive: 48.3% |

Quoted from the listing.
CPE inhibition with C[C@@H]1CN([C@H](C)CO)C(=O)Cc2cc(NC(=O)CCC(F)(F)F)ccc2O[C@@H]1CN(C)C(=O)Nc1ccccc1 reads inconclusive: 79.3%
CPE inhibition with CC(=O)n1cc(CO)c2ccccc21 reads active: 35.5%
